Source: the supplement of paper PMC10849652
This is one part of the list.

Chains of the proteins cited; added tags and fusions are not shown. Lines headed by an entry give the natural chain unless they say otherwise; changes in a name come on top.
UniProt Q16531, whole entry, looked up: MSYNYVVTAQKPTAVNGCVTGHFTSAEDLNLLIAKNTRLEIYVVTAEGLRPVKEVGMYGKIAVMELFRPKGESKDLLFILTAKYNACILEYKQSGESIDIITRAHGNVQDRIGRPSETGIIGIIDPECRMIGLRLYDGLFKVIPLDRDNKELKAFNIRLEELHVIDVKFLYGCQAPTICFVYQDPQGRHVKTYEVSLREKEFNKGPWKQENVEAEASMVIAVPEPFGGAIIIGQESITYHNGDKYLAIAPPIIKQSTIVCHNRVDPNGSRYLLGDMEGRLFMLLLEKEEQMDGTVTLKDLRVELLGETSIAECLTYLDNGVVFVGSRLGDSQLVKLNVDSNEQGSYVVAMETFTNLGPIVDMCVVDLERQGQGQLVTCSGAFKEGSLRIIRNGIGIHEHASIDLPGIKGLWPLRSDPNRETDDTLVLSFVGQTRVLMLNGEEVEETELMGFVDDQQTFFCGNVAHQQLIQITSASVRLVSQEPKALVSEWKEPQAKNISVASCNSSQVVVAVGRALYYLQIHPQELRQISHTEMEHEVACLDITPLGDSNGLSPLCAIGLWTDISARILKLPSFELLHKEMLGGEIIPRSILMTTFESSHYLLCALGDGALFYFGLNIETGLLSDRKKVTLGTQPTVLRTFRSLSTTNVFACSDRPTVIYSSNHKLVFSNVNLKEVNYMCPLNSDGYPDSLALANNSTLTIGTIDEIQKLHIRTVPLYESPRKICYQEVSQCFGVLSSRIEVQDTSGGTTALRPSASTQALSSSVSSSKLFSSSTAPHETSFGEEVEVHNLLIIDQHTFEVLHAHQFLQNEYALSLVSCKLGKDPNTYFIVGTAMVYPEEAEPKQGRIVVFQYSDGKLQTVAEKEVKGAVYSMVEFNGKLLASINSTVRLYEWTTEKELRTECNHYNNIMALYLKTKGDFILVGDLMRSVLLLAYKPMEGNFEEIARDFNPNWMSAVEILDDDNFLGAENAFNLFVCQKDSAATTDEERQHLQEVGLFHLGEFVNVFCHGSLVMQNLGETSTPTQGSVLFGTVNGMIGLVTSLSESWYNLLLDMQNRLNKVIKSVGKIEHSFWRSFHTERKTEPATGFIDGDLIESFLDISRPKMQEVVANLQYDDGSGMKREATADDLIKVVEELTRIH
UniProt Q9BUN8: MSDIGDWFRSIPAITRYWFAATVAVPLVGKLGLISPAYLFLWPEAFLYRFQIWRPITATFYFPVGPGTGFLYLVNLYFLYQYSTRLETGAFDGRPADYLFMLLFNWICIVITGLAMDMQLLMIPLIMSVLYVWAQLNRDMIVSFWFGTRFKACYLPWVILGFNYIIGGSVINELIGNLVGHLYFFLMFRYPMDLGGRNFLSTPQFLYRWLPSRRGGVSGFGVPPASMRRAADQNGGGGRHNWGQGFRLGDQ
UniProt Q9NV06: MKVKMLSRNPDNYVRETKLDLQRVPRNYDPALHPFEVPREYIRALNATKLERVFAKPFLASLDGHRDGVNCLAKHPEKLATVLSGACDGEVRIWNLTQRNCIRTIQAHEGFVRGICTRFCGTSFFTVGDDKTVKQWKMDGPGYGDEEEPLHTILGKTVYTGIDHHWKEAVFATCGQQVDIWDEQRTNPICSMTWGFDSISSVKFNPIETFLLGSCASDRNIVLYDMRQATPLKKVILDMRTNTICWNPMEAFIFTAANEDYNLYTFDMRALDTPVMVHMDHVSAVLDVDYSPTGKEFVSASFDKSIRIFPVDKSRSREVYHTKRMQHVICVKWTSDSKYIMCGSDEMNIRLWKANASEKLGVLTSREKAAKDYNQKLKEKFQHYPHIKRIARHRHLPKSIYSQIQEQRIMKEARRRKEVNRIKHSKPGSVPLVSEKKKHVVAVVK
UniProt O00399, whole entry, looked up: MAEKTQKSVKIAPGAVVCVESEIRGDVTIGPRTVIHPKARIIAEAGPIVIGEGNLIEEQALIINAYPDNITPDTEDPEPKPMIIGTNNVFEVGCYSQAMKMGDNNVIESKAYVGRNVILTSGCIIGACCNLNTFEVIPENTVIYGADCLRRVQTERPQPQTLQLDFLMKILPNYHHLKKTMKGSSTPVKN
UniProt P0CG12: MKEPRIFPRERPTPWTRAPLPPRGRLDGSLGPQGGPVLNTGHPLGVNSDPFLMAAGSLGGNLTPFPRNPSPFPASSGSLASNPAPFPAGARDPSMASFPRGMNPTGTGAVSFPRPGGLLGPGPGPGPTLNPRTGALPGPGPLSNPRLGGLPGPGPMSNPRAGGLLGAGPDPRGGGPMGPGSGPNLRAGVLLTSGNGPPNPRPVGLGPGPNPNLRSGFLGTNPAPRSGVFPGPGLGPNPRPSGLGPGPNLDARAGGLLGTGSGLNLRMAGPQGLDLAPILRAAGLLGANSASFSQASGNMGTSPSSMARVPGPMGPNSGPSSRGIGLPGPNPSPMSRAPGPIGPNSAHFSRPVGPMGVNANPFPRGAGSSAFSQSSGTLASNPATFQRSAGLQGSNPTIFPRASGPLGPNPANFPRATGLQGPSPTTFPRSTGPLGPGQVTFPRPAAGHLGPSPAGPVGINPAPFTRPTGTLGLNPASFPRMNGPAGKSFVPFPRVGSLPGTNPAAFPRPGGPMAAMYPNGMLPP
UniProt Q8TEH3: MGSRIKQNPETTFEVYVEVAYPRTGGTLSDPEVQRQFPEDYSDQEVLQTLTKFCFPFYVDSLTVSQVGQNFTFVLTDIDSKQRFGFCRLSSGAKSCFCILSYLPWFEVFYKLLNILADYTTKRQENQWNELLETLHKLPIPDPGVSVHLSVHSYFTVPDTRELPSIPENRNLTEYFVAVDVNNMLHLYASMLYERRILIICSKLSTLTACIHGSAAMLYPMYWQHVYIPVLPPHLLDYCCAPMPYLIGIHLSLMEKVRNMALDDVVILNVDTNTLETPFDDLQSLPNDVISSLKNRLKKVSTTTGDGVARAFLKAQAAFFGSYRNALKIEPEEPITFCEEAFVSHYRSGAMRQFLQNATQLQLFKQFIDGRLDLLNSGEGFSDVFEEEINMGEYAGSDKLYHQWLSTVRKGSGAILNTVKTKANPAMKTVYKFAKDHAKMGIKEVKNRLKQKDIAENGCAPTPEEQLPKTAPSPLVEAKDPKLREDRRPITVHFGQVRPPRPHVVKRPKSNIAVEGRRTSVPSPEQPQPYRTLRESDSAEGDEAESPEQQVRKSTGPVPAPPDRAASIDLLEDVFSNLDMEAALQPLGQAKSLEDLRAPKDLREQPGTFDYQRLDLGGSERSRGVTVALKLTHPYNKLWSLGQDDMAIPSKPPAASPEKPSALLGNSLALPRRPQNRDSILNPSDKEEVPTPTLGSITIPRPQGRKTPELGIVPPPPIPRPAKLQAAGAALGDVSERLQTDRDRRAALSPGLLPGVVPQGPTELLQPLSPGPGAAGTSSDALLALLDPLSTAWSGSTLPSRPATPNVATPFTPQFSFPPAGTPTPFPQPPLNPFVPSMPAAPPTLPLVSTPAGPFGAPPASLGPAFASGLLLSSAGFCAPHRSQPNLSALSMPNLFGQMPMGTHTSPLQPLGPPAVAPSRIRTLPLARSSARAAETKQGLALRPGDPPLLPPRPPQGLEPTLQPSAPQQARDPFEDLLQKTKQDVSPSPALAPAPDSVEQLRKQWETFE
UniProt Q9BTE7: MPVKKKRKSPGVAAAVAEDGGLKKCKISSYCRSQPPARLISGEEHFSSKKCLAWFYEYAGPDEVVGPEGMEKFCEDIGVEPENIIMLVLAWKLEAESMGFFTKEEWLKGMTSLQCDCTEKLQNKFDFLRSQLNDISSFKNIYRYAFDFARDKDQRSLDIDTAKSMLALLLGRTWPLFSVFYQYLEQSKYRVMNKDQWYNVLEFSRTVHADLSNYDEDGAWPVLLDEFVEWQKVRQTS
UniProt Q5T1V6: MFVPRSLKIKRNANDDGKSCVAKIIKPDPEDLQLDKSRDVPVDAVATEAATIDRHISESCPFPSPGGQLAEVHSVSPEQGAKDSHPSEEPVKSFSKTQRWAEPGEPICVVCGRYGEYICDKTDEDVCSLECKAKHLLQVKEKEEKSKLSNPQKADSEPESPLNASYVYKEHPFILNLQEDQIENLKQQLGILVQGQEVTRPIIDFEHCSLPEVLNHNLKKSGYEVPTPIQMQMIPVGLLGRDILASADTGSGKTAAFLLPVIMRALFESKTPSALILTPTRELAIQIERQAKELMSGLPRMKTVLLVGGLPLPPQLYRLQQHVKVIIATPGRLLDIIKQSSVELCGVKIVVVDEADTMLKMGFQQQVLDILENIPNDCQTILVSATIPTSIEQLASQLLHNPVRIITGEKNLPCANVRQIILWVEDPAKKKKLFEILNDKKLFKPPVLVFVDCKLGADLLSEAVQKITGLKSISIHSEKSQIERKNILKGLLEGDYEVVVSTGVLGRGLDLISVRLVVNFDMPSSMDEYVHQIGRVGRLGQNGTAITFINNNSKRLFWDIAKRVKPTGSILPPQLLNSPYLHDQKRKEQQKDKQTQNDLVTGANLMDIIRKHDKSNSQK
UniProt Q9H4E7, whole entry, looked up: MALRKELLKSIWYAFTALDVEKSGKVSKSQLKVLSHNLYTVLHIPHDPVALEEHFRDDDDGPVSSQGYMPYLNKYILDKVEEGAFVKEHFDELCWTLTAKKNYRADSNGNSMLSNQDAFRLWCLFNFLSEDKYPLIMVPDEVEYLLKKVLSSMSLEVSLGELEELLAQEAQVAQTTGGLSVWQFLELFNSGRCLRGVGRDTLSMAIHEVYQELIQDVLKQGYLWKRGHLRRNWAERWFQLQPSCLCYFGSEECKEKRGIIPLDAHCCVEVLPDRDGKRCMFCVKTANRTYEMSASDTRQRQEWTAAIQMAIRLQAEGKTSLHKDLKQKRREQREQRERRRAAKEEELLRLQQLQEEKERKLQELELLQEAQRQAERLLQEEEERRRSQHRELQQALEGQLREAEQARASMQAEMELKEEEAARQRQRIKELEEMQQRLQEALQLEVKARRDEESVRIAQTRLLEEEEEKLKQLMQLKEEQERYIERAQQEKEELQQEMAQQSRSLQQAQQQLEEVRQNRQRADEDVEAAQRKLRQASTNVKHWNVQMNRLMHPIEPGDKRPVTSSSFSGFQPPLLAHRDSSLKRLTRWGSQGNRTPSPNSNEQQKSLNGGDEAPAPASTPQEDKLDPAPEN
UniProt Q9H773: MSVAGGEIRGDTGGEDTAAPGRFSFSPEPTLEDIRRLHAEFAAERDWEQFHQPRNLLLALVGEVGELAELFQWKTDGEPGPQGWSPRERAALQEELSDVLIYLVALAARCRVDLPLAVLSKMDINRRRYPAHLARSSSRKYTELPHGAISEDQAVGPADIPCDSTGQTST
UniProt P98082: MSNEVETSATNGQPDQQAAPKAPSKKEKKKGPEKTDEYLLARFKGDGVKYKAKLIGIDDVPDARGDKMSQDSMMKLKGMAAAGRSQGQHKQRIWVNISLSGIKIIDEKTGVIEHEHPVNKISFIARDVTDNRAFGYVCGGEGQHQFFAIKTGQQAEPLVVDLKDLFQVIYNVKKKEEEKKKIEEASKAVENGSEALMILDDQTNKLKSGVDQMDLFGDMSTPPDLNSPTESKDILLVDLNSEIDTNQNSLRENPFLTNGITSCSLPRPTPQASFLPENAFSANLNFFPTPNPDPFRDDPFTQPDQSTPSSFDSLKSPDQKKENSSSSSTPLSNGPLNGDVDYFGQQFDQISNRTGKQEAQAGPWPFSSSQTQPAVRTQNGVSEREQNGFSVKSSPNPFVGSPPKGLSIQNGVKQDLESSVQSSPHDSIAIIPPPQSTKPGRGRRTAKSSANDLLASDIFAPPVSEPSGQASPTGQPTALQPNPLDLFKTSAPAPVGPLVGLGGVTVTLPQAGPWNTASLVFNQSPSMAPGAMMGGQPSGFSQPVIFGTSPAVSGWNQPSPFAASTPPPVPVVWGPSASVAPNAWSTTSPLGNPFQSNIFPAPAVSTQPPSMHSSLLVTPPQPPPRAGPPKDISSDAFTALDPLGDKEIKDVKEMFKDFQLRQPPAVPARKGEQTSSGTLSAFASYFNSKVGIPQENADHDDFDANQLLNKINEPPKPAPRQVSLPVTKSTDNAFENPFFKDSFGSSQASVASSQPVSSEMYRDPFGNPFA
UniProt P39656: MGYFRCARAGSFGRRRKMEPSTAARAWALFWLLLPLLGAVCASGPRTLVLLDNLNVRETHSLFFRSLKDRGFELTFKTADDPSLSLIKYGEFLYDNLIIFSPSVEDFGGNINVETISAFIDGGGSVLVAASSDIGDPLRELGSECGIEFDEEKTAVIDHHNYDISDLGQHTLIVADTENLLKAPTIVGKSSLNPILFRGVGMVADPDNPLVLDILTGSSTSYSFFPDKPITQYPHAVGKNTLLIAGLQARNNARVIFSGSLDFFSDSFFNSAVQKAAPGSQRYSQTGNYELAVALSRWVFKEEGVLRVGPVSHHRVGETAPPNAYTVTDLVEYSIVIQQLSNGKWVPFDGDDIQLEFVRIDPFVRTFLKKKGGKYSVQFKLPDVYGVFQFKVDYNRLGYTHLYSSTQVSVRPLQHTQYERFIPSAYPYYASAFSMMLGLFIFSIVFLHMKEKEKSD

How the values were obtained:
Test in all cases: log2 fold change, soluble protein after heating vs DMSO (PISA); higher = thermal stabilisation; K562 lysate, 10 uM; active = over 0.2 and 3.5 SD of the protein, either way, in both replicates (recomputed)
[1] = compound: C#Cc1cccc(Nc2ncnc3cc(OCCOC)c(OCCOC)cc23)c1 [erlotinib]
Summary of the method: (§1)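 Soluble protein was defined as the supernatant remaining after 21,000xg for 90 min, following pooling of heated aliquots and adjustment to 0.5% NP-40 at 4°C. Before that, crude K562 extract at 1 mg/mL protein in PBS pH 7.4 with 1 mM MgCl2 was treated with 10 μM compound for 30 min and heated for 3 min across 48°C-58°C. Quantification used TMTpro 16plex LC-MS/MS with channel sums equalised, and values are log-two fold changes in thermal stability relative to solvent controls from duplicates.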

[2] = compound: C/C(=N\NC(=O)C1=CC(=CC=C1)S(=O)(=O)N2CCOCC2)/C3=C(C=CC(=C3)Cl)O
Summary of the method: as §1

[3] = compound: C1=CC(=CC=C1C2=NC3=C(N2)C=C(C=C3)C(=O)N)OC4=CC=C(C=C4)Cl
Summary of the method: as §1

[4] = compound: C1=CC2=C(C=CC(=C2)/C=C\3/C(=O)NC(=NCC4=CC=CS4)S3)N=C1
Summary of the method: as §1

[5] = compound: C1=CC2=NC=CN=C2C=C1/C=C/3\C(=O)NC(=O)S3
Summary of the method: as §1

[6] = compound: C1=CC=C(C=C1)C2=NC(=C(N2)C3=CC=NC=C3)C4=CC(=C(C=C4)Cl)O
Summary of the method: as §1

[7] = compound: C1=CC=C2C(=C1)C3=NNC4=CC=CC(=C43)C2=O
Summary of the method: as §1

[8] = compound: C1CCN(C1)C(=O)NC2=CC=CC(=C2)NC3=NC=C(C(=N3)NCCC4=CN=CN4)Br
Summary of the method: as §1

[9] = compound: C1CN(CCC1(CC2=CC=C(C=C2)Cl)N)C3=NC=NC4=C3C=CN4
Summary of the method: as §1

[10] = compound: C1COCCN1CCN2C3=CC=CC=C3N=C2NC(=O)C4=CC(=CC=C4)[N+](=O)[O-] [IRAK-1-4 Inhibitor I]
Summary of the method: as §1

[11] = compound: C=CC(=O)N1CCC[C@@H](n2nc(-c3ccc(Oc4ccccc4)cc3)c3c(N)ncnc32)C1 [ibrutinib]
Summary of the method: as §1

[12] = compound: CC(=O)c1cnc2ccc(-c3cc(Cl)c(O)c(Cl)c3)nc2c1N[C@H]1CC[C@H](CN(C)C)CC1
Summary of the method: as §1

[13] = compound: CC(C)(C)Cn1c(N)nc2ccc(-c3[nH]c(C(C)(C)C)nc3-c3ccc(F)cc3)nc21 [ralimetinib]
Summary of the method: as §1

[14] = compound: CC(C)(O)CC(=O)NCCn1ccc2ncnc(Nc3ccc(Oc4cccc(C(F)(F)F)c4)c(Cl)c3)c21
Summary of the method: as §1

[15] = compound: CC(C)C1=C2N=C(C=C(N2N=C1)NCC3=CC=CC=C3)NCCCCCCN
Summary of the method: as §1

[16] = compound: CC1=C(C(CC(=O)N1)C2=CC=C(C=C2)C(F)(F)F)C(=O)NC3=C(C=C4C(=C3)C=NN4)F
Summary of the method: as §1

[17] = compound: CC1=C(C2=C(C=C1)C(=O)C3=CC=CC=C3N2CCCN)C
Summary of the method: as §1

[18] = compound: CC1=C(C=C(C=C1)NC(=O)C2=CC(=CC=C2)C(C)(C)C#N)NC3=CC4=C(C=C3)N=CN(C4=O)C
Summary of the method: as §1

[19] = compound: CC1=C(C=C(C=C1)NC(=O)C2=CC(=CC=C2)N(C)C)NC(=O)C3=CC=C(C=C3)O
Summary of the method: as §1

[20] = compound: CC1=CC=C(C=C1)SC2=C3C=C(SC3=CN=C2)C(=O)N
Summary of the method: as §1

Measured: log2 fold change

DDB1 (UniProt Q16531)
inactive: [1] -0.013 | [2] -0.02 | [3] -0.009 | [4] 0.012 | [5] 0.014 | [6] 0.002 | [7] 0.028 | [8] 0.008 | [9] -0.007 | [10] 0.006 | [11] 0.005 | [12] 0.002 | [13] 0.02 | [14] 0.002 | [15] -0.017 | [16] -0.009 | [17] 0.014 | [18] 0.009 | [19] -0.026 | [20] -0.011

DERL1 (UniProt Q9BUN8)
inactive: [1] -0.023 | [2] -0.073 | [3] 0.031 | [4] -0.112 | [5] -0.002 | [6] -0.055 | [7] -0.111 | [8] 0.01 | [9] -0.024 | [10] 0.022 | [11] 0.013 | [12] -0.01 | [13] -0.077 | [14] -0.072 | [15] -0.022 | [16] 0.041 | [17] -0.003 | [18] -0.01 | [19] 0.05 | [20] 0.036

DDRGK1 (UniProt Q96HY6)
inactive: [1] -0.063 | [2] -0.085 | [3] 0.013 | [4] 0.012 | [5] -0.039 | [6] -0.079 | [7] -0.033 | [8] -0.021 | [9] 0 | [10] 0.019 | [11] -0.018 | [12] 0.053 | [13] 0.022 | [14] -0.048 | [15] 0.026 | [16] 0.037 | [17] -0.008 | [18] 0.03 | [19] 0.004 | [20] 0.002

DCP2 (UniProt Q8IU60)
inactive: [1] 0.005 | [2] 0.039 | [3] -0.029 | [4] -0.064 | [5] -0.037 | [6] -0.007 | [7] 0.001 | [8] 0.025 | [9] -0.014 | [10] -0.017 | [11] -0.005 | [12] -0.005 | [13] 0.067 | [14] 0.003 | [15] 0.006 | [16] 0.021 | [17] 0.034 | [18] -0.043 | [19] 0.081 | [20] -0.002

DCAF13 (UniProt Q9NV06)
inactive: [1] -0.019 | [2] 0.077 | [3] -0.026 | [4] 0.041 | [5] -0.064 | [6] -0.001 | [7] 0.008 | [8] 0.013 | [9] 0.032 | [10] 0.002 | [11] 0.042 | [12] -0.034 | [13] -0.044 | [14] 0.021 | [15] -0.05 | [16] -0.02 | [17] -0.031 | [18] 0.014 | [19] 0.026 | [20] 0.002

DCTN6 (UniProt O00399)
inactive: [1] -0.05 | [2] 0.041 | [3] 0.018 | [4] -0.003 | [5] 0.049 | [6] -0.028 | [7] -0.01 | [8] -0.014 | [9] 0.009 | [10] -0.008 | [11] 0.135 | [12] -0.016 | [13] 0.006 | [14] -0.036 | [15] 0.011 | [16] 0.075 | [17] -0.044 | [18] 0.025 | [19] 0.008 | [20] -0.035

DERPC (UniProt P0CG12)
inactive: [1] -0.016 | [2] -0.022 | [3] 0.069 | [4] -0.075 | [5] 0 | [6] -0.121 | [7] 0.147 | [8] -0.03 | [9] 0.008 | [10] -0.004 | [11] 0.146 | [12] -0.033 | [13] -0.029 | [14] -0.008 | [15] 0.008 | [16] -0.02 | [17] -0.068 | [18] -0.351 | [19] 0.023 | [20] 0.059

DENND1A isoform 6 (UniProt Q8TEH3)
inactive: [1] 0.022 | [2] 0.11 | [3] -0.026 | [4] 0.117 | [5] -0.02 | [6] -0.056 | [7] 0 | [8] 0.023 | [9] 0.064 | [10] -0.021 | [11] 0.068 | [12] 0.104 | [13] -0.087 | [14] 0.057 | [15] 0.053 | [16] 0.024 | [17] -0.016 | [18] -0.102 | [19] 0.061 | [20] -0.11

DCUN1D5 (UniProt Q9BTE7)
inactive: [1] 0.043 | [2] -0.03 | [3] -0.017 | [4] -0.002 | [5] 0.097 | [6] -0.013 | [7] 0.007 | [8] 0.003 | [9] 0.092 | [10] -0.013 | [11] -0.129 | [12] -0.093 | [13] 0.008 | [14] 0.01 | [15] -0.028 | [16] -0.002 | [17] 0.01 | [18] 0.022 | [19] 0.077 | [20] 0.043

DDX59 (UniProt Q5T1V6)
inactive: [1] -0.022 | [2] -0.015 | [3] 0.03 | [4] -0.011 | [5] -0.038 | [6] -0.001 | [7] 0.024 | [8] -0.017 | [9] -0.061 | [10] -0.017 | [11] -0.008 | [12] 0.013 | [13] 0.064 | [14] 0.018 | [15] 0.068 | [16] 0.026 | [17] -0.005 | [18] -0.01 | [19] -0.004 | [20] -0.011

DEF6 (UniProt Q9H4E7)
inactive: [1] 0.02 | [2] 0.07 | [3] -0.072 | [4] 0.067 | [5] -0.104 | [6] 0.016 | [7] -0.131 | [8] 0.05 | [9] 0 | [10] 0.019 | [11] 0.016 | [12] -0.007 | [13] 0.098 | [14] -0.014 | [15] 0.022 | [16] 0.028 | [17] -0.024 | [18] -0.026 | [19] 0.066 | [20] -0.001

DCTPP1 (UniProt Q9H773)
inactive: [1] -0.02 | [2] -0.017 | [3] 0.015 | [4] 0.014 | [5] 0.006 | [6] -0.011 | [7] -0.015 | [8] 0.058 | [9] 0.102 | [10] 0.007 | [11] 0.111 | [12] -0.028 | [13] -0.002 | [14] -0.053 | [15] -0.043 | [16] -0.027 | [17] -0.034 | [18] 0.041 | [19] 0.005 | [20] 0.035

DCAF4L2 (UniProt Q8NA75)
inactive: [1] -0.02 | [2] -0.01 | [3] -0.012 | [4] -0.101 | [5] 0.04 | [6] 0.07 | [7] -0.039 | [8] -0.011 | [9] -0.003 | [10] -0.058 | [11] -0.116 | [12] -0.176 | [13] 0.012 | [14] -0.011 | [15] -0.054 | [16] 0.058 | [17] -0.019 | [18] -0.021 | [19] -0.042 | [20] 0.088

DDI2 isoform 3 (UniProt Q5TDH0)
inactive: [1] -0.033 | [2] 0.007 | [3] 0.019 | [4] -0.001 | [5] -0.013 | [6] -0.009 | [7] 0.029 | [8] 0 | [9] -0.018 | [10] 0.016 | [11] 0.007 | [12] 0.013 | [13] -0.009 | [14] -0.049 | [15] -0.011 | [16] 0.002 | [17] 0.022 | [18] 0.014 | [19] 0.001 | [20] -0.021

DAB2 (UniProt P98082)
inactive: [1] 0.019 | [2] -0.063 | [3] 0.066 | [4] -0.006 | [5] 0.023 | [6] -0.049 | [7] -0.004 | [8] -0.033 | [9] 0.092 | [10] 0.019 | [11] 0.071 | [12] 0.028 | [13] 0.009 | [14] -0.061 | [15] 0.015 | [16] -0.004 | [17] 0.015 | [18] -0.003 | [19] 0.015 | [20] 0.002

DDOST (UniProt P39656)
inactive: [1] 0.013 | [2] -0.033 | [3] -0.013 | [4] -0.026 | [5] -0.005 | [6] -0.007 | [7] -0.058 | [8] -0.019 | [9] 0.011 | [10] 0.022 | [11] 0.013 | [12] 0.005 | [13] -0.03 | [14] -0.048 | [15] -0.012 | [16] 0 | [17] -0.01 | [18] 0.024 | [19] 0 | [20] -0.014
